Source: article PMC12260538
Results are given in words; binding and its absence hold for the method and conditions named. In cells and extracts the contact can be indirect. Some binding calls cover weakened binding; strength is not graded here.

Amino acid sequences for entries named in this document (tags omitted).
UniProt Q9Z183: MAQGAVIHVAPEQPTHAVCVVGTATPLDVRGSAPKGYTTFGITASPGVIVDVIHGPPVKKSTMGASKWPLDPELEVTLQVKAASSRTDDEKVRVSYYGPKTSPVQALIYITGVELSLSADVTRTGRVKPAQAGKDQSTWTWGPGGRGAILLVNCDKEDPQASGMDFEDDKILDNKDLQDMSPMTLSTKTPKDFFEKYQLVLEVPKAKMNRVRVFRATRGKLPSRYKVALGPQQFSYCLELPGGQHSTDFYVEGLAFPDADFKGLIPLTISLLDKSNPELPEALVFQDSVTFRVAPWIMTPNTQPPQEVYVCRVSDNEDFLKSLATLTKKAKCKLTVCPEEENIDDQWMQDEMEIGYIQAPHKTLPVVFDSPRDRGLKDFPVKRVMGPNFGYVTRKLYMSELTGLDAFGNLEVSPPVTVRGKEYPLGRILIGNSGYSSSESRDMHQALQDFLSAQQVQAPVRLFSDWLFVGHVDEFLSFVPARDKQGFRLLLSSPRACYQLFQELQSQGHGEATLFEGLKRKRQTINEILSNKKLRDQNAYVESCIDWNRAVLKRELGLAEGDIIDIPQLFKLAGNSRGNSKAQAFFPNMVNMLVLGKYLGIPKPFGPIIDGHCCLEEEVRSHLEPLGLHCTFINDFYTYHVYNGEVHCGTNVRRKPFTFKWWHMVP

Key:
[1] = target: T1, gasdermin D (GSDMD) (mouse (endogenous in lung tissue)) (UniProt Q9D8T2); test: co-IP; lung tissue lysates of mice of the Control and PR8 groups; mild lysis buffer (20 mM Tris/HCl pH 7.6, 150 mM NaCl, 20 mM KCl, 1.5 mM MgCl2, 0.5% NP-40); anti-STING, anti-GSDMD or normal IgG on Protein A/G beads, overnight at 4°C; washed with TBST 0.1% Tween 20; immunoblot
T1 sequence: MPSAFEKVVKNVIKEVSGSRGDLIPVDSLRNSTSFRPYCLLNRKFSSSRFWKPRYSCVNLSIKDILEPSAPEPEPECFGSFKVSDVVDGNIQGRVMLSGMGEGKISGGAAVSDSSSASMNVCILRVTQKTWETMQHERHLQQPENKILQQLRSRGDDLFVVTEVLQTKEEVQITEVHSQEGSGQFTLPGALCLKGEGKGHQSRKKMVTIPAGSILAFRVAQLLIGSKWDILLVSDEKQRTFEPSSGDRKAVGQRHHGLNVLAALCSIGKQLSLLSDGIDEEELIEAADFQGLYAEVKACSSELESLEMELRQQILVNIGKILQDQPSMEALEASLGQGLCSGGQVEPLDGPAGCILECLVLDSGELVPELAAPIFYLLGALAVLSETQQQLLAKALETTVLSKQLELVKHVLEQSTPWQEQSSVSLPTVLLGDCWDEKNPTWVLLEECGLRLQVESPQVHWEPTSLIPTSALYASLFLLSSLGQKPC

[2] = target: T2, STING (stimulator of interferon genes) (mouse (endogenous in lung tissue)) (UniProt Q3TBT3); test: as above
T2 sequence: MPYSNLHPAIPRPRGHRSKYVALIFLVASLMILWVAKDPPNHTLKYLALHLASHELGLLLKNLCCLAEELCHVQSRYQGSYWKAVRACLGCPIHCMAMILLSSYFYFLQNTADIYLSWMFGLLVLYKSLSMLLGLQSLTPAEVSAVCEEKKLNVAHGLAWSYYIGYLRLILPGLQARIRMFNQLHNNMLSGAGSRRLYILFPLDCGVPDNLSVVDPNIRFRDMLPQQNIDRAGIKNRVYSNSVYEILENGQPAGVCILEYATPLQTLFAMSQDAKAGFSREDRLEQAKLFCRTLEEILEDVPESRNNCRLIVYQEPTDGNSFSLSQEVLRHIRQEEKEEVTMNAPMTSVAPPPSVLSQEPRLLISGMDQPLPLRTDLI

PAD4 (from UniProt Q9Z183 1-666) (enzyme)
binding [1]: binds
binding [2]: binds
